# Reference: publication PMC8773821
# The chains behind the UniProt entries cited, without tags or fusion partners.
# UniProt P19474: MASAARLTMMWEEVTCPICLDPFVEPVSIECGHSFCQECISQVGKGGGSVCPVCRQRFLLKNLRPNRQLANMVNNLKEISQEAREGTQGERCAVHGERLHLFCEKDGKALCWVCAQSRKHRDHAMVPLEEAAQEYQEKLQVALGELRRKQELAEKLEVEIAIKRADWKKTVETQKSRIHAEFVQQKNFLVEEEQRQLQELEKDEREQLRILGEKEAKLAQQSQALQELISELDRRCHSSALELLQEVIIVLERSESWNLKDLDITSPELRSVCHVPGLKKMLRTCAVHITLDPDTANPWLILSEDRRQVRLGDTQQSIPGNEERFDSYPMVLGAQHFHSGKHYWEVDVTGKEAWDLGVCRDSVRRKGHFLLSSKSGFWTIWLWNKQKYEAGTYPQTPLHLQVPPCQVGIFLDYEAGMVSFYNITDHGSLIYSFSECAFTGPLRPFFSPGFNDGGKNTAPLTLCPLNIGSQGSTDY
# No constants are given. Whether binding was seen depends on the method and setting. Binding seen in cells or lysates may run through a third protein. Some results given as binding are weak or reduced against the parent protein; the word gives no strength. Sequences can lack the tags named with a protein.
# Target: T1, pregnane X receptor (PXR), full-length, from the plasmid pcDNA3.1-EGFP-PXR-Flag (human) (UniProt O75469)
# T1 sequence: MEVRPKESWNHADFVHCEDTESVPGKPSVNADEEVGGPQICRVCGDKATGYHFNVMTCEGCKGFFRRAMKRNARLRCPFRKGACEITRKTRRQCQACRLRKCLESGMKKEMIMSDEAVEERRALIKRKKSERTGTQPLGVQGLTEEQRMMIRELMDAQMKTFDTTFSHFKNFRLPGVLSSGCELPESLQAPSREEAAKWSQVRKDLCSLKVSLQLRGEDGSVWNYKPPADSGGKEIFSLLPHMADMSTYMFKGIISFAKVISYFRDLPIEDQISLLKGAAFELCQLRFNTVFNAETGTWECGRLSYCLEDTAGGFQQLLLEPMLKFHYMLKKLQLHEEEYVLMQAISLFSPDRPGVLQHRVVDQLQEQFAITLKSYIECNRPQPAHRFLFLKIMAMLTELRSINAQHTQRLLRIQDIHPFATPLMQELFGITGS
# Test: co-IP; HEK 293T cells cotransfected with PXR and TRIM21 for 48 h; whole-cell lysates in RIPA with PMSF; precipitated on agarose beads with anti-Flag (the legend says PXR antibody), anti-TRIM21 or IgG; blotted with anti-PXR or anti-TRIM21
substance,measurement,value
"tripartite motif containing 21 (TRIM21), full-length (from UniProt P19474 1-475) (enzyme)",binding,binds
